Measured values from US20200016134A1, “COMPOSITIONS AND METHODS FOR TREATING SUBSTANCE ABUSE DISORDERS” (EMBERA NEUROTHERAPEUTICS, INC., priority 2016, published 2020).
For at least one compound, name, drawing or mass did not settle the structure. Some of these results come from one statement about several compounds together.

Legend:
adult male Wistar rats = assay: Intravenous cocaine self-administration under a multiple, alternating schedule of food reinforcement and cocaine self-administration; format: in vivo, rat; settings: for cocaine self-administration (infusions, percentage of baseline): FIG. 6, oxazepam 5-25 mg/kg ip; for cocaine self-administration and reinstatement of extinguished cocaine seeking: rats, pretreatment with the single drug, summary of the studies
male Wistar rats = assay: Forced Swim Test (FST), animal model of depression; settings: chronically treated groups that received only Ox or Met
rats = settings: pretreatment, Goeders et al.; cited from earlier work

SMILES | cocaine self-administration (number of cocaine infusions) (adult male Wistar rats; FIG. 1A, high dose alone: metyrapone 25-175 mg/kg ip, oxazepam 5-80 mg/kg ip) | cocaine self-administration as percentage of baseline self-administration (adult male Wistar rats; FIG. 1B, high dose alone: metyrapone 25-175 mg/kg ip, oxazepam 5-80 mg/kg ip) | cocaine self-administration (number of cocaine infusions) (adult male Wistar rats; FIG. 5, low, ineffective doses alone: oxazepam 10 mg/kg ip, ketoconazole 12.5 mg/kg ip) | cocaine self-administration (infusions, percentage of baseline) (adult male Wistar rats; high dose alone: CP-154,526 10-80 mg/kg ip) | cocaine self-administration (infusions, percentage of baseline) (adult male Wistar rats; low, ineffective doses alone: CP-154,526 5-25 mg/kg ip) | cocaine self-administration and reinstatement of extinguished cocaine seeking (adult male Wistar rats) | group means of immobility compared with vehicle (tolerance) (male Wistar rats) | intravenous cocaine self-administration (rats)
O=C1Nc2ccc(Cl)cc2C(c2ccccc2)=NC1O (stereo not drawn) [oxazepam] | reduced cocaine self-administration | less than 50% | did not significantly affect cocaine self-administration | reduced cocaine self-administration | did not significantly affect cocaine self-administration | decrease cocaine self-administration and the reinstatement of extinguished cocaine seeking | equal to or exceeded the vehicle | –
CNC1=Nc2ccc(Cl)cc2C(c2ccccc2)=[N+]([O-])C1 [chlordiazepoxide] | – | – | – | – | – | decrease cocaine self-administration and the reinstatement of extinguished cocaine seeking | – | significantly decreased intravenous cocaine self-administration
